# PubChem BioAssay AID1671190 (National Center for Advancing Translational Sciences (NCATS), 2021)
# By UniProt entry, the sequences of proteins in these tests, tags left out. Where a name states a change or a piece, a line headed by the entry shows the natural chain unless it says otherwise.
# UniProt P18054: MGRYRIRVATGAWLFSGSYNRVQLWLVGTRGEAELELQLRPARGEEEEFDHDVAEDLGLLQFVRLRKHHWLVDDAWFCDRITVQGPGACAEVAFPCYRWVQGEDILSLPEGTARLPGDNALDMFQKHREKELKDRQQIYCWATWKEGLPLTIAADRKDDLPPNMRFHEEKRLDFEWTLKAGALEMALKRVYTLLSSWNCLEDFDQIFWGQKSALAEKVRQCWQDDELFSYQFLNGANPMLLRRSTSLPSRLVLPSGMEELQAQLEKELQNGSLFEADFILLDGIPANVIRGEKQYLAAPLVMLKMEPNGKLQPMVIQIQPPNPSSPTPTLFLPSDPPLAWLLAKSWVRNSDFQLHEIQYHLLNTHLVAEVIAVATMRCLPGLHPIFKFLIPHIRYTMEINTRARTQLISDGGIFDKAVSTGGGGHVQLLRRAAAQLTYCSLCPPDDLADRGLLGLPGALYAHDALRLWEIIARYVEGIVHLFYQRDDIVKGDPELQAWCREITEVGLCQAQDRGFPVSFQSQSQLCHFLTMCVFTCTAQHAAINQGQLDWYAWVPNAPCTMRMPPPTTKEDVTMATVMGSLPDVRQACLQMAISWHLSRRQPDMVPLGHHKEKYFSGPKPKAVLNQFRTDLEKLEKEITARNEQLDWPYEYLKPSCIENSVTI
# Among all 580,000 compounds or so, about 6,100 (1.1%) were called active. The inconclusive results got no clear call from the source; some entries with a clear call stand among them for comparison. The call rests on the fitted dose curve; in most records, active means well fitted inhibition curve with a large enough effect; inconclusive means small, poorly fitted or top-dose-only effect, or another doubt; inactive means no such curve, though single readings can be large or run the other way. A potency beside an inconclusive call is a rough fit, not a confirmed value.
# Target: Polyunsaturated fatty acid lipoxygenase ALOX12 (Homo sapiens) (UniProt P18054)
# Assay: Primary qHTS assay for inhibitors of human arachidonate 12S-lipoxygenase (ALOX12): Round 2
# Conditions: purified 12hLO, xylenol orange hydroperoxide absorbance; activity change, negative = inhibition: at 108 µM (top of the series) unless noted
# In short: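 Purified human 12hLO at 150 nM in 25 mM Hepes, 0.01% Triton X-100, pH 7.0, preincubated 15 min at room temperature with compound. Reaction started with 40 uM arachidonic acid, 30 min at room temperature. Hydroperoxide measured by Fe-xylenol orange, 573/405 nm absorbance ratio.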
# On the % scale 0 is the no-effect control and ±100 the full control effect; potency means the concentration at half of the fitted maximal effect.
Compound,Potency,"activity change, negative = inhibition"
CC1=CCC(c2cnc(-c3ccccc3)c(C)c2)NC1c1ccccc1 (configuration not stated),"inconclusive: 79.4 µM [inhibitor, single point]",
COc1ccc(-c2ccc(=O)n(CC(=O)Nc3ccc(Br)cc3F)n2)cc1,"inconclusive: 112 µM [inhibitor, partial curve, poor fit]",
O=C(NCc1ccccc1CN1CCOCC1)c1cc(-c2ccco2)nc2ccccc12,"inconclusive: 12.6 µM [inhibitor, full curve]",
Cn1c(CSCc2ccccc2Cl)n[nH]c1=S,"inconclusive: 50.1 µM [inhibitor, partial curve, poor fit]",
CCS(=O)(=O)c1nc(S(=O)(=O)c2ccc(Cl)cc2)c(NCc2ccc(Cl)cc2)s1,,inactive: -16%
CC1CC(C)(C)NC(=S)N1CCC(=O)NCc1ccc(F)cc1 (configuration not stated),"inconclusive: 44.7 µM [inhibitor, partial curve, poor fit]",
COc1cc(OC)cc(C(=O)Nc2cccc(C(C)=O)c2)c1,,inactive: -29.3%
CC1(C)NC(=O)N(CC(O)CN2C(=O)NC(C)(C)C2=O)C1=O,,inactive: -0.829%
O=C(O)C(Sc1ncccn1)c1ccccc1 (configuration not stated),"inconclusive: 39.8 µM [inhibitor, partial curve, poor fit]",
Clc1cccc(Cl)c1C1Nc2cccc3cccc(c23)N1,"inconclusive: 44.7 µM [inhibitor, partial curve]",
CCOc1ccc(C2C(C(C)=O)=C(O)C(=O)N2CCc2c[nH]c3ccccc23)cc1 (configuration not stated),"inconclusive: 17.8 µM [inhibitor, full curve]",
COc1ccc(-c2sc(C(=O)c3ccc(Cl)cc3Cl)cc2CC(=O)O)cc1,"inconclusive: 112 µM [inhibitor, single point]",
Cc1ccc(NC(=O)CN(C)C(=O)c2cc3ccc(F)cc3nc2C)cc1,"inconclusive: 31.6 µM [inhibitor, partial curve, poor fit]",
Cc1cnc(NC(=O)CSc2cc(F)ccc2F)s1,"inconclusive: 17.8 µM [inhibitor, single point]",
Cc1cnc(C2CCN(S(C)(=O)=O)C2)n1C(C)C (configuration not stated),,inactive: 36.4%
Cn1c(CNc2cccc(C(F)(F)F)c2)n[nH]c1=S,,inactive: 0%
C#CCNCCS(=O)(=O)N(Cc1ccc(Br)cc1)[C@@H](CC(C)C)C(=O)O,"inconclusive: 141 µM [inhibitor, single point]",
COCC(=O)N1CCN(C(C)=O)C[C@@H]1C(=O)N[C@H](C)C(=O)OC,,inactive: 13.5% [at 176 µM]
O=C(O)c1nn(CCOc2ccccc2)c(=O)c2ccccc12,,inactive: 18.9%
Cc1cc(=O)oc2cc(NC(=O)CCCOc3ccccc3)ccc12,,inactive: 1.27%
CC(C)C[C@@]12C(=O)N(c3cccc(Cl)c3)C(=O)N1[C@H](c1ccc(Br)cc1)[C@@H]1C(=O)N(C(C)(C)C)C(=O)[C@@H]12,,inactive: -55.6%

Compound,Potency,"activity change, negative = inhibition"
C=C1C(=O)[C@]23C[C@H]1CCC2[C@]1(C)C(=O)CC[C@@](C)(C(=O)O)C1C[C@@H]3O (some centres not stated),"inconclusive: 39.8 µM [inhibitor, partial curve, poor fit]",
C=CCC1(CO)CCCN(C(=O)c2cccc(N3CCNC3=O)c2)C1 (configuration not stated),,inactive: 12.1%
O=C(CC1=C2CCCCC2N(Cc2ccccc2)C1=O)NCCc1c[nH]c2ccccc12 (configuration not stated),"inconclusive: 39.8 µM [inhibitor, partial curve]",
Cc1ccc(-c2cc(C(=O)OCC(=O)N(C)C3CCS(=O)(=O)C3)c3ccccc3n2)o1 (configuration not stated),"inconclusive: 50.1 µM [inhibitor, partial curve, poor fit]",
Cc1ccc(/C(O)=C2\C(=O)C(=O)N(Cc3cccnc3)C2c2ccccc2[N+](=O)[O-])cc1 (configuration not stated),,inactive: -18.8%
COc1ccccc1CC(O)CC1c2c(cc3c(c2OC)OCO3)CCN1C (configuration not stated),,inactive: -2.19%
CC(C)C(=O)N1c2ccccc2NC2=C(C(=O)CC(C)(C)C2)C1c1cccnc1 (configuration not stated),"inconclusive: 56.2 µM [inhibitor, single point]",
CCCCCCn1c(=O)n2n(c1=O)C[C@]1(OC(=O)NC3CC3)CN(S(=O)(=O)c3ccc(C)cc3)C[C@]1(O)C2,"inconclusive: 44.7 µM [inhibitor, partial curve, poor fit]",
CC(C)(C)NC(=O)NC(=O)COC(=O)CNS(=O)(=O)c1ccc(Br)cc1Cl,"inconclusive: 63.1 µM [inhibitor, partial curve, poor fit]",
Cc1c(Cc2ccccc2)c(=O)oc2c(O)c(O)ccc12,active: 3.98 µM,
CC(C)c1ccc(NC(=O)[C@H]2O[C@@H]3OC(C)(C)O[C@@H]3[C@H]3OC(C)(C)O[C@H]32)cc1,"inconclusive: 178 µM [inhibitor, partial curve, poor fit]",
CN(C)CCNc1cccc(Br)c1,,inconclusive: -35.6% [inhibitor]
Cc1ccc(Nc2c3c(nc4ccccc24)CCC3)c(Br)c1,"inconclusive: 44.7 µM [inhibitor, partial curve, poor fit]",
Cc1ccc(-c2nnc(Oc3ccc(NC(=O)c4ccccc4)cc3)c3ccccc23)cc1,"inconclusive: 3.55 µM [inhibitor, full curve, poor fit]",
C#CCOCCOCCOCCNc1nc(N2CCOCC2)nc(N2CCN(C(=O)[C@H](CCC(=O)O)n3cc(C(N)[C@H](C)CC)nn3)CC2)n1 (some centres not stated),,inactive: 7.21%
COc1ccccc1OCC(=O)Nc1cc(Cl)ccc1N1CCCCC1,"inconclusive: 126 µM [inhibitor, single point]",
COc1ccc2c(c1)-c1nc(N)sc1CC2,"inconclusive: 56.2 µM [inhibitor, partial curve, poor fit]",
CC(C)NC(=O)N(C)C[C@H]1OCCCC[C@@H](C)Oc2ccc(N(C)C)cc2C(=O)N([C@H](C)CO)C[C@@H]1C,"inconclusive: 89.1 µM [inhibitor, partial curve, poor fit]",
NC(=O)C1=C[C@H](c2csc3ccccc23)C[C@H](OCCCCO)O1,"inconclusive: 70.8 µM [inhibitor, partial curve, poor fit]",
O=C(c1ccc(N2CCCCC2)c([N+](=O)[O-])c1)N1CCN(c2ccccn2)CC1,,inactive: 13.5%
CCn1nc(C)c(CCN(C)C(=O)Nc2cc(Cl)c(OC)cc2OC)c1C,"inconclusive: 89.1 µM [inhibitor, partial curve, poor fit]",

# Taken from above for reference:
Compound,Potency,"activity change, negative = inhibition"
NC(=O)C1=C[C@H](c2csc3ccccc23)C[C@H](OCCCCO)O1,"inconclusive: 70.8 µM [inhibitor, partial curve, poor fit]",
O=C(c1ccc(N2CCCCC2)c([N+](=O)[O-])c1)N1CCN(c2ccccn2)CC1,,inactive: 13.5%
CCn1nc(C)c(CCN(C)C(=O)Nc2cc(Cl)c(OC)cc2OC)c1C,"inconclusive: 89.1 µM [inhibitor, partial curve, poor fit]",
